Source: PMC8178337
Results are given in words; binding and its absence hold for the method and conditions named. Binding seen in cells or lysates may run through a third protein. Some entries that bind do so weakly or less than the wild type.

By UniProt entry, the sequences of proteins in these tests, tags left out.
UniProt P15884: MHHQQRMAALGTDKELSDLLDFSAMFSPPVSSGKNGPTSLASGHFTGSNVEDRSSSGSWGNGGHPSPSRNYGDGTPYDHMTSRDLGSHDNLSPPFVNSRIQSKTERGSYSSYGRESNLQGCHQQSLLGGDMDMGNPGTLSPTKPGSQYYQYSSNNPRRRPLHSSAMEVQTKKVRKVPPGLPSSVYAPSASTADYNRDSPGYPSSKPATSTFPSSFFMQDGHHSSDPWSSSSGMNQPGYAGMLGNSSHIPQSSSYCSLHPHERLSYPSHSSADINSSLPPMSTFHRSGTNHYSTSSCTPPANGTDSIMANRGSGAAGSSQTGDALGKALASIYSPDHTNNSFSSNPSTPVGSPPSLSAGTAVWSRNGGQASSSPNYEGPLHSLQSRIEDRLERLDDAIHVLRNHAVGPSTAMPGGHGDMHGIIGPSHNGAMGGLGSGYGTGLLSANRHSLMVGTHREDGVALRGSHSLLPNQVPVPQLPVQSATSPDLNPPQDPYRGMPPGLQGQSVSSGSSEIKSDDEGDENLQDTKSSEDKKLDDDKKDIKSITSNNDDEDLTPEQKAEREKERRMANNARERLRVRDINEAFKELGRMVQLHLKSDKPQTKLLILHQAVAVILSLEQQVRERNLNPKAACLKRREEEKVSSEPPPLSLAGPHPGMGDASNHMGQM

Key:
[1] = biological target: T1, Runt-related transcription factor 1 (Runx1t1) (human (endogenous in 253 J and J82)) (UniProt Q06455); assay: co-IP; reciprocal immunoprecipitation; 3 ug antibody and protein A-agarose added to 253 J cell lysates, 12 h, 4 C; western blot
T1 sequence: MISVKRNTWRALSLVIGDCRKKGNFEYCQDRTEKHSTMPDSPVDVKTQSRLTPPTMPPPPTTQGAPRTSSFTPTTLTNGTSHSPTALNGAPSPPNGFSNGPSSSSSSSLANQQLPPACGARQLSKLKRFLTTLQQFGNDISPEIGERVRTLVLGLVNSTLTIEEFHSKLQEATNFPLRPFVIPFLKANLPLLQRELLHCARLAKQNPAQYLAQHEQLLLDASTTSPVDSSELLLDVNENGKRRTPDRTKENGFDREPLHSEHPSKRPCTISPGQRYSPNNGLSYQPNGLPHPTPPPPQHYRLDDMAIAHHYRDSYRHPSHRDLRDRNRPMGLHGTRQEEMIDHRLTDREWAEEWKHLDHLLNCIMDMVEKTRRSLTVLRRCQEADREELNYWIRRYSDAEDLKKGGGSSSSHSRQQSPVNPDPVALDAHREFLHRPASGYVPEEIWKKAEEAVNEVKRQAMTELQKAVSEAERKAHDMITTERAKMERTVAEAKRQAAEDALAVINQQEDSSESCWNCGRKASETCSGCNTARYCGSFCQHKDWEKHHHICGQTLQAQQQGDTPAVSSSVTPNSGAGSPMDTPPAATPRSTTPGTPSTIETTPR

[2] = biological target: T1, Runt-related transcription factor 1 (Runx1t1) (human (endogenous in 253 J and J82)); assay: proximity ligation; in situ PLA (Duolink, Rabbit PLUS and Mouse MINUS) on fixed 253 J cells with anti-Runx1t1 and anti-TCF4 antibodies; confocal microscopy

binding [1]: binds
binding [2]: binds
Substance: Transcription factor 4 (TCF4) (from UniProt P15884 1-667)
